US8394969B2, “Cyclic benzimidazole derivatives useful as anti-diabetic agents” (Merck Sharp & Dohme Corp., priority 2008, dated 2013)
Some entries share one result that the patent states for a list of compounds.

Amino acid sequences for entries named in this document (tags omitted). A change or cut given only in a name is not applied to a line headed by its entry.
UniProt Q13131: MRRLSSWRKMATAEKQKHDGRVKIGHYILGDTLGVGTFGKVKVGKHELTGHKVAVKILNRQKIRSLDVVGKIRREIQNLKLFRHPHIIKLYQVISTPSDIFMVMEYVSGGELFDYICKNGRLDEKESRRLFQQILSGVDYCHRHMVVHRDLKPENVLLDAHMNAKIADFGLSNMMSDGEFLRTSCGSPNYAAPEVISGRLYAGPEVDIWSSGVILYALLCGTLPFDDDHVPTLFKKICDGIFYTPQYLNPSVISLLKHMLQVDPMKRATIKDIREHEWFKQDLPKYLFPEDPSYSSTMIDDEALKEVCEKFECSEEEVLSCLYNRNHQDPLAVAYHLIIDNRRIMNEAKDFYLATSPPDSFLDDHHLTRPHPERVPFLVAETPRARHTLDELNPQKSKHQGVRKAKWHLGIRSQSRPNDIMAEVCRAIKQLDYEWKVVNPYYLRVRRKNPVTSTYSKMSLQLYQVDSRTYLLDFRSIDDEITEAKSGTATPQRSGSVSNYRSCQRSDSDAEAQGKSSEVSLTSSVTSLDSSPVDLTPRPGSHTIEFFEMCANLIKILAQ
UniProt Q9Y478: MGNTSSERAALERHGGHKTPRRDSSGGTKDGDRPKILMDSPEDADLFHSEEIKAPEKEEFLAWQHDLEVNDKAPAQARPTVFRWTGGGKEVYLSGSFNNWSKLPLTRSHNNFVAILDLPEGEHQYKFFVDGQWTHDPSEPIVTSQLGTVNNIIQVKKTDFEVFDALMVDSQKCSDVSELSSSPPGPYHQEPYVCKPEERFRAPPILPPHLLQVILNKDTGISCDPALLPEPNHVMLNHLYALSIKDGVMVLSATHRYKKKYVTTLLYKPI

Target: recombinant human AMPK complex 1 (containing α1β1γ1) (Homo sapiens, UniProt Q13131+Q9Y478)
Assay: […] (in vitro AMPK activation assay)
Format: biochemical
Details: recombinant human AMPK complex 1 (α1β1γ1)

Row | Compound | EC50
1 | Cc1ccc(Oc2nc3cc(-c4ccc(-c5ccccc5)cc4)ccc3[nH]2)cc1C(=O)O [Example 207, 5-(5-Biphenyl-4-yl-1H-benzoimidazol-2-yloxy)-2-methyl-benzoic acid] | < 10 µM
2 | Cc1cc(C)c(C(=O)O)cc1Oc1nc2cc(-c3ccc(-c4ccccc4)cc3)c(Cl)cc2[nH]1 [Example 208, 5-(5-Biphenyl-4-yl-6-chloro-1H-benzoimidazol-2-yloxy)-2,4-dimethyl-benzoic acid] | < 10 µM
3 | O=C(O)c1ccc(F)c(Oc2nc3cc(-c4ccc(-c5ccccc5)cc4)c(Cl)cc3[nH]2)c1 [Example 209, 3-(5-Biphenyl-4-yl-6-chloro-1H-benzoimidazol-2-yloxy)-4-fluoro-benzoic acid] | < 10 µM
4 | O=C(O)c1ccc(Cl)c(Oc2nc3cc(-c4ccc(-c5ccccc5)cc4)c(Cl)cc3[nH]2)c1 [Example 210, 3-(5-Biphenyl-4-yl-6-chloro-1H-benzoimidazol-2-yloxy)-4-chloro-benzoic acid] | < 10 µM
5 | COc1ccc(C(=O)O)cc1Oc1nc2cc(-c3ccc(-c4ccccc4)cc3)c(Cl)cc2[nH]1 [Example 211, 3-(5-Biphenyl-4-yl-6-chloro-1H-benzoimidazol-2-yloxy)-4-methoxy-benzoic acid] | < 10 µM
6 | CCc1ccc(Oc2nc3cc(-c4ccc(-c5ccccc5)cc4)c(Cl)cc3[nH]2)cc1C(=O)O [Example 212, 5-(5-Biphenyl-4-yl-6-chloro-1H-benzoimidazol-2-yloxy)-2-ethyl-benzoic acid] | < 10 µM
7 | Cc1cc(Oc2nc3cc(-c4ccc(-c5ccccc5)cc4)c(Cl)cc3[nH]2)c(C)c(C(=O)O)c1 [Example 213, 3-(5-Biphenyl-4-yl-6-chloro-1H-benzoimidazol-2-yloxy)-2,5-dimethyl-benzoic acid] | < 10 µM
8 | O=C(O)c1cccc(Oc2nc3cc(-c4ccc(-c5ccccc5)cc4)c(Cl)cc3[nH]2)n1 [Example 214, 6-(5-Biphenyl-4-yl-6-chloro-1H-benzoimidazol-2-yloxy)-pyridine-2-carboxylic acid] | < 10 µM
9 | O=C(O)c1ccnc(Oc2nc3cc(-c4ccc(-c5ccccc5)cc4)c(Cl)cc3[nH]2)c1 [Example 215, 2-(5-Biphenyl-4-yl-6-chloro-1H-benzoimidazol-2-yloxy)-isonicotinic acid] | < 10 µM
10 | Cc1ccc(C(=O)O)cc1Oc1nc2cc(-c3ccc4c(ccn4C)c3)c(Cl)cc2[nH]1 [Example 216, 3-[6-Chloro-5-(1-methyl-1H-indol-5-yl)-1H-benzoimidazol-2-yloxy]-4-methyl-benzoic acid] | < 10 µM
11 | Cn1ccc2cc(-c3cc4nc(Oc5ccc(Cl)c(C(=O)O)c5)[nH]c4cc3Cl)ccc21 [Example 217, 2-Chloro-5-[6-chloro-5-(1-methyl-1H-indol-5-yl)-1H-benzoimidazol-2-yloxy]-benzoic acid] | < 10 µM
12 | Cc1c(Oc2nc3cc(-c4ccc5c(ccn5C)c4)c(Cl)cc3[nH]2)cccc1C(=O)O [Example 218, 3-[6-Chloro-5-(1-methyl-1H-indol-5-yl)-1H-benzoimidazol-2-yloxy]-2-methyl-benzoic acid] | < 10 µM
13 | NS(=O)(=O)c1cccc(Oc2nc3cc(-c4ccc(-c5ccccc5)cc4)c(Cl)cc3[nH]2)c1 [Example 220, 3-(5-Biphenyl-4-yl-6-chloro-1H-benzoimidazol-2-yloxy)-benzenesulfonamide] | < 10 µM
14 | Cc1ccc(Oc2nc3cc(-c4ccc(-c5ccccc5)cc4)c(Cl)cc3[nH]2)cc1C(=O)NS(C)(=O)=O [Example 221, N-[5-(5-Biphenyl-4-yl-6-chloro-1H-benzoimidazol-2-yloxy)-2-methyl-benzoyl]-methanesulfonamide] | < 10 µM
15 | O=C(NS(=O)(=O)c1ccccc1)c1cccc(Oc2nc3cc(-c4ccc(-c5ccccc5)cc4)c(Cl)cc3[nH]2)c1 [Example 222, N-[3-(5-Biphenyl-4-yl-6-chloro-1H-benzoimidazol-2-yloxy)-benzoyl]-benzenesulfonamide] | < 10 µM
